Here are results for two molecules from doi:10.1101/2025.04.11.648483.

Protein sequences, listed by entry. Tags and fused reporters are not part of them.
UniProt A0A0K3AR81: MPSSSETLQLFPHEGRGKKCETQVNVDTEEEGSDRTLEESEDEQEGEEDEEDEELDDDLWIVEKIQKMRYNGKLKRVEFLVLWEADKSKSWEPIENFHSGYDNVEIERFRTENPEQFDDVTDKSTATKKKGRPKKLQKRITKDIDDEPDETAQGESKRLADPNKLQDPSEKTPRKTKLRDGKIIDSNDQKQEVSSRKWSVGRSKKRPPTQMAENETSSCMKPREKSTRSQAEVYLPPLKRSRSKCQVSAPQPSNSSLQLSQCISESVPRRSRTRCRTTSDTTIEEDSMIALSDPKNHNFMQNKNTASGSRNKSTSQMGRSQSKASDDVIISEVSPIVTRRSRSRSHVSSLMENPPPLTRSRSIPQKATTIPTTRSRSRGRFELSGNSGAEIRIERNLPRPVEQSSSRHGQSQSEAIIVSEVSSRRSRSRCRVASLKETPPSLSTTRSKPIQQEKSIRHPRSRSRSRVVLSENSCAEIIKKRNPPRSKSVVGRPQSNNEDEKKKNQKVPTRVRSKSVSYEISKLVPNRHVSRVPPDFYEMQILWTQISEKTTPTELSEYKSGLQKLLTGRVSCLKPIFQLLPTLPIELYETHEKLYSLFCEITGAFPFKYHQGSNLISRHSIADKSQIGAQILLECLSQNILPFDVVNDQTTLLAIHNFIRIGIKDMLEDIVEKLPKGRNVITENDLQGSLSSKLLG

Assay [1] addresses T1, 3xFLAG-tagged TAF-12 (C. elegans) (UniProt Q9U226).
T1 sequence: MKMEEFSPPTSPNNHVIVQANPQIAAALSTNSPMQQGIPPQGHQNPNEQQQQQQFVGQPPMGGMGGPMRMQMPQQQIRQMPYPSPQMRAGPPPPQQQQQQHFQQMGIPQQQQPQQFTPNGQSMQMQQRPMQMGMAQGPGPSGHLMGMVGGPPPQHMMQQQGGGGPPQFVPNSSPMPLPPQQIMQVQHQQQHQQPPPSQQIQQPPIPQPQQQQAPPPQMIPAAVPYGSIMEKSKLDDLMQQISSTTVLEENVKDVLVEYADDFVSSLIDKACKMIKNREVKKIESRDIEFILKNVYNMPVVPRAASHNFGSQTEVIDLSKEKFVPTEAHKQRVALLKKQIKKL
As to the kind of experiment: affinity purification with mass spectrometry.

Assay [2] has as its target UAD-2::GFP::3xFLAG (C. elegans). The assay can be described thus: affinity purification with mass spectrometry.

Results are given in words; binding and its absence hold for the method and conditions named. Binding seen in cells or lysates may run through a third protein. Here binding means that the protein was enriched with, or labelled near, the bait; the list need not be complete. For some assays here: Where a sequence is shown, tags or fusion partners need not be part of it.

For “UAD-2 (endogenous, in worm lysate) (from UniProt A0A0K3AR81 1-696)”, in assay [1], the binding result is given as “binds”.

B1: TAF-12 (endogenous, in worm lysate) (protein, UniProt Q9U226 1-342)
chain: T1 sequence
For B1, the binding entry in assay [2] was “binds”.
